Results from PubChem BioAssay AID192 (DTP/NCI, 2004).
The list is a part of this screen's results and no random one: it gathers tests that were run many times, whatever their T/C, doses with no T/C, and many T/C values between a quarter and a half above the control. Other doses and runs of a compound stand elsewhere. T/C gives the treated animals as a percentage of the vehicle group. Some doses have a count of surviving animals in place of a T/C: the source files T/C as zero there, which appears to mark a toxic dose or a test without result, not a measured value. Some survivor counts are full or nearly so, which does not show that the dose was tolerated: survival well below the control is almost never listed, so the zero probably covers shortened survival too. Survivors were counted at the toxicity check, usually on the fifth day, unless a day is given; later deaths do not show. Schedule codes are those of the source, read here as Q, the interval in days (D) or hours (H), X, the number of doses. Some structures stand for samples that the source files as different forms (salt, stereo form or complex); doses refer to the form tested. Signs of the kind (2×) count equal records among those shown. Some doses were run more than once; the results are listed from low to high. For survival time, the PubChem record calls one and a half times the control and up active, and a quarter to a half above the control has no call in these data; cut-offs in other NCI protocols can differ. Some T/C values are followed by the survivors on the day toxicity was checked, most often the fifth; without a count, all were alive then.

Test system: BDF1 mice, B16 melanoma ip, median survival T/C
Assay: NCI In Vivo Anticancer Drug Screen. Data for tumor model B16 Melanoma (intraperitoneal) in B6D2F1 (BDF1) mice
Settings: T/C endpoint: median survival time, higher T/C = longer survival
Method in brief: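 Survival or tumor size is measured after treatment of tumor-bearing mice and normalised to the vehicle-treated control group.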

SMILES: COc1cc(NS(C)(=O)=O)ccc1Nc1c2ccccc2nc2ccccc12
- T/C (dose: 8.0 mg/kg/injection, schedule: Q04DX003 (ip), vehicle: other, evaluated on day 60): 186 and 188 % of control
- T/C (dose: 8.0 mg/kg/injection, schedule: Q04DX003 (ip), vehicle: other, evaluated on day 70): 135 [9 of 10 alive] and 149 % of control
- survivor count (dose: 10.0 mg/kg/injection, schedule: Q01DX009 (ip), vehicle: saline): 10 of 10
- survivor count (dose: 12.0 mg/kg/injection, schedule: Q01DX009 (ip), vehicle: Klucel (hydroxypropylcellulose) (HPC)): 9 of 10 and 10 of 10
- T/C (dose: 12.5 mg/kg/injection, schedule: Q01DX001 (ip), vehicle: saline): 147 % of control
- survivor count (dose: 12.5 mg/kg/injection, schedule: Q01DX009 (ip), vehicle: saline with Tween-80): 6 of 6
- survivor count (dose: 13.0 mg/kg/injection, schedule: Q01DX005 (iv), vehicle: lactic acid): 10 of 10
- survivor count (dose: 16.0 mg/kg/injection, schedule: Q01DX001 (ip), vehicle: lactic acid): 7 of 10
- survivor count (dose: 16.0 mg/kg/injection, schedule: Q01DX009 (ip), vehicle: clinical formulation): 8 of 10 (2×)
- survivor count (dose: 16.0 mg/kg/injection, schedule: Q01DX009 (ip), vehicle: other): 8 of 10 and 10 of 10
- survivor count (dose: 16.0 mg/kg/injection, schedule: Q01DX009 (oral), vehicle: lactic acid): 8 of 10
- survivor count (dose: 16.0 mg/kg/injection, schedule: Q01DX009 (oral), vehicle: other): 8 of 10 and 10 of 10
- survivor count (dose: 16.0 mg/kg/injection, schedule: Q03HX016 (oral), vehicle: lactic acid): 3 of 10
- T/C (dose: 16.0 mg/kg/injection, schedule: Q04DX003 (ip), vehicle: other, evaluated on day 8): 142 % of control
- T/C (dose: 16.0 mg/kg/injection, schedule: Q04DX003 (ip), vehicle: other, evaluated on day 10): 127 % of control [8 of 9 alive]
- T/C (dose: 16.0 mg/kg/injection, schedule: Q04DX003 (ip), vehicle: other, evaluated on day 60): 188 % of control
- T/C (dose: 16.0 mg/kg/injection, schedule: Q04DX003 (ip), vehicle: other, evaluated on day 70): 166 % of control
- survivor count (dose: 16.0 mg/kg/injection, schedule: Q04DX003 (ip), vehicle: other): 4 of 10 and 7 of 10
- T/C (dose: 16.0 mg/kg/injection, schedule: Q04DX003 (oral), vehicle: lactic acid): 131 % of control
- survivor count (dose: 17.0 mg/kg/injection, schedule: Q01DX009 (ip), vehicle: Klucel (hydroxypropylcellulose) (HPC)): 10 of 10
- survivor count (dose: 25.0 mg/kg/injection, schedule: Q01DX009 (ip), vehicle: Klucel (hydroxypropylcellulose) (HPC)): 10 of 10
- survivor count (dose: 25.0 mg/kg/injection, schedule: Q01DX009 (ip), vehicle: saline with Tween-80): 6 of 6
- T/C (dose: 25.0 mg/kg/injection, schedule: Q01DX009 (ip), vehicle: saline): 149 % of control
- survivor count (dose: 26.0 mg/kg/injection, schedule: Q01DX005 (iv), vehicle: lactic acid): 3 of 10
- survivor count (dose: 30.0 mg/kg/injection, schedule: Q04DX003 (ip), vehicle: clinical formulation): 5 of 10 (2×)
- survivor count (dose: 32.0 mg/kg/injection, schedule: Q01DX001 (ip), vehicle: lactic acid): 0 of 10
- survivor count (dose: 32.0 mg/kg/injection, schedule: Q03HX016 (oral), vehicle: lactic acid): 1 of 10
- survivor count (dose: 32.0 mg/kg/injection, schedule: Q04DX003 (ip), vehicle: other): 7 of 10 (2×)
- T/C (dose: 32.0 mg/kg/injection, schedule: Q04DX003 (oral), vehicle: lactic acid): 132 % of control [9 of 10 alive]
- survivor count (dose: 37.0 mg/kg/injection, schedule: Q01DX009 (ip), vehicle: Klucel (hydroxypropylcellulose) (HPC)): 9 of 10
- survivor count (dose: 50.0 mg/kg/injection, schedule: Q01DX009 (ip), vehicle: saline with Tween-80): 4 of 6
- survivor count (dose: 50.0 mg/kg/injection, schedule: Q01DX009 (ip), vehicle: saline): 10 of 10
- survivor count (dose: 50.0 mg/kg/injection, schedule: Q04DX003 (ip), vehicle: Klucel (hydroxypropylcellulose) (HPC)): 10 of 10
- survivor count (dose: 64.0 mg/kg/injection, schedule: Q01DX001 (oral), vehicle: lactic acid): 7 of 10
- survivor count (dose: 64.0 mg/kg/injection, schedule: Q04DX003 (ip), vehicle: other): 1 of 10 and 2 of 10
- survivor count (dose: 64.0 mg/kg/injection, schedule: Q04DX003 (oral), vehicle: lactic acid): 7 of 10
- survivor count (dose: 64.0 mg/kg/injection, schedule: Q04DX003 (oral), vehicle: other): 10 of 10
- survivor count (dose: 64.0 mg/kg/injection, schedule: Q08DX002 (oral), vehicle: lactic acid): 9 of 10
- survivor count (dose: 100.0 mg/kg/injection, schedule: Q01DX001 (ip), vehicle: saline): 4 of 10
- survivor count (dose: 100.0 mg/kg/injection, schedule: Q01DX009 (ip), vehicle: saline with Tween-80): 0 of 6
- survivor count (dose: 100.0 mg/kg/injection, schedule: Q04DX003 (ip), vehicle: Klucel (hydroxypropylcellulose) (HPC)): 10 of 10
- survivor count (dose: 128.0 mg/kg/injection, schedule: Q01DX001 (oral), vehicle: lactic acid): 3 of 10
- survivor count (dose: 128.0 mg/kg/injection, schedule: Q04DX003 (ip), vehicle: other): 0 of 10 (2×)
- survivor count (dose: 128.0 mg/kg/injection, schedule: Q04DX003 (oral), vehicle: other): 9 of 10 and 10 of 10
- survivor count (dose: 128.0 mg/kg/injection, schedule: Q08DX002 (oral), vehicle: lactic acid): 2 of 10
- survivor count (dose: 200.0 mg/kg/injection, schedule: Q01DX001 (ip), vehicle: saline sonified): 6 of 6
- survivor count (dose: 200.0 mg/kg/injection, schedule: Q04DX003 (ip), vehicle: Klucel (hydroxypropylcellulose) (HPC)): 10 of 10
- survivor count (dose: 400.0 mg/kg/injection, schedule: Q04DX003 (ip), vehicle: Klucel (hydroxypropylcellulose) (HPC)): 10 of 10
